Laboratory results taken from PMC4675558.
Results are given in words; binding and its absence hold for the method and conditions named. Binding seen in cells or lysates may run through a third protein. Some results given as binding are weak or reduced against the parent protein; the word gives no strength. Where a sequence is shown, tags or fusion partners need not be part of it.

Chains of the proteins cited; added tags and fusions are not shown.
UniProt P52286: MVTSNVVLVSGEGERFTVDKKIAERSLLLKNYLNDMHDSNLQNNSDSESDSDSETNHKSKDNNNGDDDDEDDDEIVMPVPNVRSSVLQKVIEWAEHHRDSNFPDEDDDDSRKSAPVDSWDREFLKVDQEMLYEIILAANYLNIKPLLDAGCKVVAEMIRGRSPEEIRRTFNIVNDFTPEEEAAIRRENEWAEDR

T1: 12Myc-tagged Met30 L187D (S. cerevisiae) (UniProt P39014)
T1 sequence: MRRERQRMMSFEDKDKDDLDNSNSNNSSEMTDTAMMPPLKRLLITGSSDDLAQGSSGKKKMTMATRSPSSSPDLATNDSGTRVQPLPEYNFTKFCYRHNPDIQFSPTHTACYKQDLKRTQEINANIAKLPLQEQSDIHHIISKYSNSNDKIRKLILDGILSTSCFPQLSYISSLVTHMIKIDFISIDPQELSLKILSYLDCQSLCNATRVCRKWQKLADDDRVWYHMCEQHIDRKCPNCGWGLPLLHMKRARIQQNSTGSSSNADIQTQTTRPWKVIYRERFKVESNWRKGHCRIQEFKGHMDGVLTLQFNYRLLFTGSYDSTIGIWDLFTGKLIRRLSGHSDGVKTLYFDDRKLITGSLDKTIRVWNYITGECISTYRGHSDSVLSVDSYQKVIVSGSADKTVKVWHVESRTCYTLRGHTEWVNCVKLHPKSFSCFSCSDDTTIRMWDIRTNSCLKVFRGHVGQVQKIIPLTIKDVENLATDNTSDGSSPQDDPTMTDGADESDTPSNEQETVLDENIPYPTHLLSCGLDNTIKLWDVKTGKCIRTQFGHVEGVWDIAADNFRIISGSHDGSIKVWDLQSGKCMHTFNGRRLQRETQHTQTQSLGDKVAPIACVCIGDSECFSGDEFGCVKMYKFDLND

T2: 12Myc-tagged Cdc53 Y133R, GAL1 inducible (S. cerevisiae) (UniProt Q12018)
T2 sequence: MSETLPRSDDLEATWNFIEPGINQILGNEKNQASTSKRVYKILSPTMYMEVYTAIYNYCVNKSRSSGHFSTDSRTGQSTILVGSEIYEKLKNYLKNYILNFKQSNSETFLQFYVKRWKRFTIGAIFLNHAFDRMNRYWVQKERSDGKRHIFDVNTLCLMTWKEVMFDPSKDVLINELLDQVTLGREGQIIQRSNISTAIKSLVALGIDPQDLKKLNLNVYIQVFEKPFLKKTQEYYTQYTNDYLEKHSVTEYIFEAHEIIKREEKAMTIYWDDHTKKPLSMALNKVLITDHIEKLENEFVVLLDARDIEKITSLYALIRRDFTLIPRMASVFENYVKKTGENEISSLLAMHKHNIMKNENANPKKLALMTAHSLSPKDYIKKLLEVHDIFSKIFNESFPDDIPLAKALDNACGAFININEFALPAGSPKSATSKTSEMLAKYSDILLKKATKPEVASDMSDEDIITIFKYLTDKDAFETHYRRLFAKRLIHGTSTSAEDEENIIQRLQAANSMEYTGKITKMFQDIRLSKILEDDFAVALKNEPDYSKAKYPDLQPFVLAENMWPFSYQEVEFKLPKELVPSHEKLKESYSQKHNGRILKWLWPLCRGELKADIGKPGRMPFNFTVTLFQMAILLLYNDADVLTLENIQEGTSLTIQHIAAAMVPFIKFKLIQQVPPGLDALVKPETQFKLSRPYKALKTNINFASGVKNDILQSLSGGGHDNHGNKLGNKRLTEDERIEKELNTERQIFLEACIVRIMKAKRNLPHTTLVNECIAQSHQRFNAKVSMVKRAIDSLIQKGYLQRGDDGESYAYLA

T3: (MBP)-Met30(1-186) (S. cerevisiae) (UniProt P39014)
T3 sequence: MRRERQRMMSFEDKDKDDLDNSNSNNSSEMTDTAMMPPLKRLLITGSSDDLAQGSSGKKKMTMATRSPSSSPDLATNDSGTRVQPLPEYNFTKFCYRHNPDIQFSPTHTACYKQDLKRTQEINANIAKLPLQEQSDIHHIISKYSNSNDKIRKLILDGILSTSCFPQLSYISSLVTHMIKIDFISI

T4: (MBP)-Met30(1-186) M178E/I179E (S. cerevisiae) (UniProt P39014)
T4 sequence: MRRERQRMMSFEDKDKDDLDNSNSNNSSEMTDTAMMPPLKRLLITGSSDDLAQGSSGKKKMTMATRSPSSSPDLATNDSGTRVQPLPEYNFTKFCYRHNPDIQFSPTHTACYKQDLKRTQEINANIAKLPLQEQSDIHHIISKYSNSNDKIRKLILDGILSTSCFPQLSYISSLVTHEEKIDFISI


How the values were obtained:
[1] = molecular target: T1, 12Myc-tagged Met30 L187D (S. cerevisiae); experiment: co-IP; 12MycMet30 or 12MycMet30 L187D immunopurified from yeast grown at 30°C; co-purified proteins by immunoblotting; untagged Met30 strain as control
[2] = molecular target: T2, 12Myc-tagged Cdc53 Y133R, GAL1 inducible (S. cerevisiae); experiment: co-IP; 12MycCdc53 or 12MycCdc53 Y133R (GAL1 inducible, 2% galactose, 30°C) immunopurified from yeast lysate (Triton X-100 buffer); co-purified proteins by immunoblotting
[3] = molecular target: T3, (MBP)-Met30(1-186) (S. cerevisiae); experiment: pull-down; MBP-tagged proteins on amylose resin incubated with 3 mg of Skp1-depleted yeast lysate expressing Cdc53-TAP, 2 h at 4°C, recombinant protein buffer (150 mM NaCl, 0.05% Triton-X100, 0.05% NP-40); Cdc53 detected with PAP antibody; only the target purified
[4] = molecular target: T4, (MBP)-Met30(1-186) M178E/I179E (S. cerevisiae); experiment: as above

| Molecule | binding [1] | binding [2] | binding [3] | binding [4] |
| --- | --- | --- | --- | --- |
| Skp1 (from UniProt P52286 1-194) | no binding | no binding |  |  |
| TAP-tagged Cdc53, endogenous (protein, UniProt Q12018 1-815) MSETLPRSDDLEATWNFIEPGINQILGNEKNQASTSKRVYKILSPTMYMEVYTAIYNYCVNKSRSSGHFSTDSRTGQSTILVGSEIYEKLKNYLKNYILNFKQSNSETFLQFYVKRWKRFTIGAIFLNHAFDYMNRYWVQKERSDGKRHIFDVNTLCLMTWKEVMFDPSKDVLINELLDQVTLGREGQIIQRSNISTAIKSLVALGIDPQDLKKLNLNVYIQVFEKPFLKKTQEYYTQYTNDYLEKHSVTEYIFEAHEIIKREEKAMTIYWDDHTKKPLSMALNKVLITDHIEKLENEFVVLLDARDIEKITSLYALIRRDFTLIPRMASVFENYVKKTGENEISSLLAMHKHNIMKNENANPKKLALMTAHSLSPKDYIKKLLEVHDIFSKIFNESFPDDIPLAKALDNACGAFININEFALPAGSPKSATSKTSEMLAKYSDILLKKATKPEVASDMSDEDIITIFKYLTDKDAFETHYRRLFAKRLIHGTSTSAEDEENIIQRLQAANSMEYTGKITKMFQDIRLSKILEDDFAVALKNEPDYSKAKYPDLQPFVLAENMWPFSYQEVEFKLPKELVPSHEKLKESYSQKHNGRILKWLWPLCRGELKADIGKPGRMPFNFTVTLFQMAILLLYNDADVLTLENIQEGTSLTIQHIAAAMVPFIKFKLIQQVPPGLDALVKPETQFKLSRPYKALKTNINFASGVKNDILQSLSGGGHDNHGNKLGNKRLTEDERIEKELNTERQIFLEACIVRIMKAKRNLPHTTLVNECIAQSHQRFNAKVSMVKRAIDSLIQKGYLQRGDDGESYAYLA |  |  | binds | binds |
